Results from the supplement of paper PMC6411743.
± gives the standard deviation of the averaged measurements. The entries are a selection whose mix differs from that of the whole data set.

Protein sequences, listed by entry. Tags and fused reporters are not part of them. Lines headed by an entry give the natural chain unless they say otherwise; changes in a name come on top.
UniProt P51159: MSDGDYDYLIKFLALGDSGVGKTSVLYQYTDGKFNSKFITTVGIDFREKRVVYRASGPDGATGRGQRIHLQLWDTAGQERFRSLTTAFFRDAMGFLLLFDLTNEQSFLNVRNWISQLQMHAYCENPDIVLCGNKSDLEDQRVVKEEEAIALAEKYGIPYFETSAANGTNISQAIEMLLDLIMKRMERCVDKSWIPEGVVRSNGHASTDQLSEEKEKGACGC
UniProt P54687: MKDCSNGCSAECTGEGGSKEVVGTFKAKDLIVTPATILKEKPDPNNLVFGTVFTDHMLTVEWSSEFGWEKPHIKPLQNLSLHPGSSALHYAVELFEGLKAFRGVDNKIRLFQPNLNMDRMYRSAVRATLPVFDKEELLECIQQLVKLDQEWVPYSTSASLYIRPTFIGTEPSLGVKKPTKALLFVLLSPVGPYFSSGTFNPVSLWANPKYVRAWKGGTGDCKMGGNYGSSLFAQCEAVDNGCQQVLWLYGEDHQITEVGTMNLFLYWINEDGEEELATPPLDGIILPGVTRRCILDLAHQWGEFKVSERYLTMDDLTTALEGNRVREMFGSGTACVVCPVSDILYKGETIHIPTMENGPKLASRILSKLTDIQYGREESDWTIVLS
UniProt P53677: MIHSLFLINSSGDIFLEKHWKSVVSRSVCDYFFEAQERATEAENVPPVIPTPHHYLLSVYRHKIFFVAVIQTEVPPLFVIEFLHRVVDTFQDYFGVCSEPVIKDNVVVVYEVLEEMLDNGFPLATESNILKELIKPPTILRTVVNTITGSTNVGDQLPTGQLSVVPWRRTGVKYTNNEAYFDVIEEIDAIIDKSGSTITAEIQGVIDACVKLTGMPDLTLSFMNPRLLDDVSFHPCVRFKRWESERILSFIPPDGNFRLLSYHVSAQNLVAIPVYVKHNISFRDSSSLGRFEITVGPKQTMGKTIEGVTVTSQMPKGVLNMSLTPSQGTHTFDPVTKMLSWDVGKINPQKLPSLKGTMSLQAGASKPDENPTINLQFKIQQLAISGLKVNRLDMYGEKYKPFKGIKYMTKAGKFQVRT
UniProt P53701: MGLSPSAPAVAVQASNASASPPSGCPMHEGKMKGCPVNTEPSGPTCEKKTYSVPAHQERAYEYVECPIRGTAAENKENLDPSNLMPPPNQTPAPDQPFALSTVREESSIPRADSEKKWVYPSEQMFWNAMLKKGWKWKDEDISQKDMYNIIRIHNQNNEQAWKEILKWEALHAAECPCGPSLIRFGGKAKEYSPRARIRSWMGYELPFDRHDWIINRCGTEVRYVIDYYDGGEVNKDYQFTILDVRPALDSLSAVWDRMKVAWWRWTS
UniProt P40692: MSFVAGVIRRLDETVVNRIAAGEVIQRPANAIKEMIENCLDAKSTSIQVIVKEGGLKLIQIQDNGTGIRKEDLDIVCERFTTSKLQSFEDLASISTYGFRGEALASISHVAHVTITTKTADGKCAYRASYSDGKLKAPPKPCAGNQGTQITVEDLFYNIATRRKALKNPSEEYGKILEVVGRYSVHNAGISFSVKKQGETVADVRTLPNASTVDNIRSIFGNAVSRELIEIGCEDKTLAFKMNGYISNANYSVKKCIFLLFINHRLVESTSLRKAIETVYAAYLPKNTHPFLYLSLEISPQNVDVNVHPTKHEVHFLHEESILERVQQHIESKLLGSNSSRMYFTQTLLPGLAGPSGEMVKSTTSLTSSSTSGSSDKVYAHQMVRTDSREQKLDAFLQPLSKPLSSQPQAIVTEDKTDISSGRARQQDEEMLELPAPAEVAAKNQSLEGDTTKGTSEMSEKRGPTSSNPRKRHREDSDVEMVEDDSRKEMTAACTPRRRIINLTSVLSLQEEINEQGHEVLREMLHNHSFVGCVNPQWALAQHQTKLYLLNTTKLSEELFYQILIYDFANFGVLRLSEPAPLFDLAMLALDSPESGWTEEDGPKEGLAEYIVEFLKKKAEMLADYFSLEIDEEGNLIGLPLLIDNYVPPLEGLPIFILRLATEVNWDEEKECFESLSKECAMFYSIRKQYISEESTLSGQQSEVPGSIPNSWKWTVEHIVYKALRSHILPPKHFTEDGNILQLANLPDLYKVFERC
UniProt P51957: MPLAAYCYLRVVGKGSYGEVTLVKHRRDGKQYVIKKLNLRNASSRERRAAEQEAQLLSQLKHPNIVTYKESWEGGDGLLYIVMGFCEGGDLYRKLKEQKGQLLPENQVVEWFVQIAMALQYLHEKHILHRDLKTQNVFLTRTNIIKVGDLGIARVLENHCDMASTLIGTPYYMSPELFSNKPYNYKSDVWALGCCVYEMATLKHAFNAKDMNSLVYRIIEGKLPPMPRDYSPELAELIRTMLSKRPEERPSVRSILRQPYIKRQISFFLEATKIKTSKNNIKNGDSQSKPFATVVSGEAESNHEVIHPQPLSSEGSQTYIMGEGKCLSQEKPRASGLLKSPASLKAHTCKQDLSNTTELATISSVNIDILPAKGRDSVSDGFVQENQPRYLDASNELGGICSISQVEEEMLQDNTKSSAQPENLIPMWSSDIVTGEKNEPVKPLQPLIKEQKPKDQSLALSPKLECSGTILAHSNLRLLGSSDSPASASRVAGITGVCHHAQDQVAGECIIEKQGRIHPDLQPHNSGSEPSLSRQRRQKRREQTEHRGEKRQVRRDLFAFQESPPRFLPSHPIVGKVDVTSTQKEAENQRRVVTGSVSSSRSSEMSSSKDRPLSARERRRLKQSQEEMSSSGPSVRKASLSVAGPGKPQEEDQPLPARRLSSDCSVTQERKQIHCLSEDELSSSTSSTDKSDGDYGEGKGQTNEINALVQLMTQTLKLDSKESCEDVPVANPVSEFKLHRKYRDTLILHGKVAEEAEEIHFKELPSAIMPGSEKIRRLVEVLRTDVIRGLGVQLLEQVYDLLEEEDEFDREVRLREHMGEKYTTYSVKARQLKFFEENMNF
UniProt P50053: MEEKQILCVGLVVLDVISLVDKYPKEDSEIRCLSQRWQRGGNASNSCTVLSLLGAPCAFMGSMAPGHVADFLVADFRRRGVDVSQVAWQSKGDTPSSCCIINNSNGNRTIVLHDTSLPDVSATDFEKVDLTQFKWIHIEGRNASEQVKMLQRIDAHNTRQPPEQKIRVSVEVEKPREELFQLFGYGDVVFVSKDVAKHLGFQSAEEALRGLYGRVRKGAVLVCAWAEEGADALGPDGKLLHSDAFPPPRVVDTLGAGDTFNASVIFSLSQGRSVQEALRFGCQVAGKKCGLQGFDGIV
UniProt P41743, whole entry: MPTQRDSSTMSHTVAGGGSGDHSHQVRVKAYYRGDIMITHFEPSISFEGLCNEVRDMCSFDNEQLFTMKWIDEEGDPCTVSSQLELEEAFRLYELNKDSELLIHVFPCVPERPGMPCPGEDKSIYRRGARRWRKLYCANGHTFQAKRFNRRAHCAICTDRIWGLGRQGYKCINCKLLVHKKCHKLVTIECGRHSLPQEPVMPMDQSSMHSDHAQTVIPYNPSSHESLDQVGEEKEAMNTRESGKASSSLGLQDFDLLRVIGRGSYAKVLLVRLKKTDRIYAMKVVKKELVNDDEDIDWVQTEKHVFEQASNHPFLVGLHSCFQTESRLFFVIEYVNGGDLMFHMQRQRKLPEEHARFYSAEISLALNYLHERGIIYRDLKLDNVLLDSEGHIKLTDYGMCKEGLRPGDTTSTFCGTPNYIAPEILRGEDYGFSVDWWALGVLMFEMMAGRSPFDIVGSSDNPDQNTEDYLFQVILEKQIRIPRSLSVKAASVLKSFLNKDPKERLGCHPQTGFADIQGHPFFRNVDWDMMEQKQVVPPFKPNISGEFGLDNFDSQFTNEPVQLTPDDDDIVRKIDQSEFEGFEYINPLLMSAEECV
UniProt P50995, whole entry: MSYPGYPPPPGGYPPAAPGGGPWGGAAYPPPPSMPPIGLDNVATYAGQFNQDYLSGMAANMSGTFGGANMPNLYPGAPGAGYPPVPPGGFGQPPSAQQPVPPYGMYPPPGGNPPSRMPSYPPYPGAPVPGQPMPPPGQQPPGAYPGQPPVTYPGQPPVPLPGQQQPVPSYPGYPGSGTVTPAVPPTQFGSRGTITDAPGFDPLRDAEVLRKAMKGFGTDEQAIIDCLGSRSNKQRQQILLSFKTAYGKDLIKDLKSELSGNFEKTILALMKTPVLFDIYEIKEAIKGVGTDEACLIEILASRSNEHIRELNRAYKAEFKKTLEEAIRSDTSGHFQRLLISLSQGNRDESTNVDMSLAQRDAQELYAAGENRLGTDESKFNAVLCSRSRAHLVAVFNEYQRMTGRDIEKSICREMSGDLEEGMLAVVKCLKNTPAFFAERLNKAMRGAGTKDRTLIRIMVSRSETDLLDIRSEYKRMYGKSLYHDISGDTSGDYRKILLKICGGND
UniProt P52630: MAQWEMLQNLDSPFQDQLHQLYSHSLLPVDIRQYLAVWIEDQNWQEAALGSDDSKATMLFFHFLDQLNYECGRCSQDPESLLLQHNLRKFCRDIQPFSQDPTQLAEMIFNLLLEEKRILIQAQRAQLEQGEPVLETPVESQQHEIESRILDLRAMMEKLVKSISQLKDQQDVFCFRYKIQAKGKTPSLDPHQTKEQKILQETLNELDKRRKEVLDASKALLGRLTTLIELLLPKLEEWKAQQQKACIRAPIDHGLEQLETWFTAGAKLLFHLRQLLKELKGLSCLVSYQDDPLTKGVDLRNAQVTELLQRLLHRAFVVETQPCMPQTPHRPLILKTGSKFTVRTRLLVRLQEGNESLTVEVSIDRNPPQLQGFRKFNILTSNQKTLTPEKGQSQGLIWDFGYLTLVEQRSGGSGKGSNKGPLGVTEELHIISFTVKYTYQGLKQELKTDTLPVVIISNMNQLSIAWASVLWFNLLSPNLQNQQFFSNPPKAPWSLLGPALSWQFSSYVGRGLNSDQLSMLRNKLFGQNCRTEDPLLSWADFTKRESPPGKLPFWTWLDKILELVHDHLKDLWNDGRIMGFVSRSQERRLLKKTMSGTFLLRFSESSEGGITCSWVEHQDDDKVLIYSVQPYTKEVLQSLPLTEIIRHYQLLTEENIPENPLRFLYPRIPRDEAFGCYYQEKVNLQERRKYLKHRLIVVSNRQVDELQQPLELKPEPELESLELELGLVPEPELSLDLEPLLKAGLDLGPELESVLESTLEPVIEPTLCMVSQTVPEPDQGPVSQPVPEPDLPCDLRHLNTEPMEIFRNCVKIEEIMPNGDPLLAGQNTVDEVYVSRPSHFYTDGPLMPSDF
UniProt P42696: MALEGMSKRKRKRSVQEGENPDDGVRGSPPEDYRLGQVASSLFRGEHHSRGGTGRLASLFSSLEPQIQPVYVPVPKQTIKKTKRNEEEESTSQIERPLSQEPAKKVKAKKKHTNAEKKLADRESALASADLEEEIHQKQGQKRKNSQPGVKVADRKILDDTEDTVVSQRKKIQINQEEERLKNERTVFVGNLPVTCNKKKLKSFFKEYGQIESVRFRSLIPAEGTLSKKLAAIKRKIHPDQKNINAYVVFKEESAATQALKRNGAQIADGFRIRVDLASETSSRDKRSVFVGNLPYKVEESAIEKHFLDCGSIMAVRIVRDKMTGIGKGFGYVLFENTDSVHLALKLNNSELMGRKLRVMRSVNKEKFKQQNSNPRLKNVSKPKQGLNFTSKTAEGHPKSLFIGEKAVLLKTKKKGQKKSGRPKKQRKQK
UniProt P52888, whole entry: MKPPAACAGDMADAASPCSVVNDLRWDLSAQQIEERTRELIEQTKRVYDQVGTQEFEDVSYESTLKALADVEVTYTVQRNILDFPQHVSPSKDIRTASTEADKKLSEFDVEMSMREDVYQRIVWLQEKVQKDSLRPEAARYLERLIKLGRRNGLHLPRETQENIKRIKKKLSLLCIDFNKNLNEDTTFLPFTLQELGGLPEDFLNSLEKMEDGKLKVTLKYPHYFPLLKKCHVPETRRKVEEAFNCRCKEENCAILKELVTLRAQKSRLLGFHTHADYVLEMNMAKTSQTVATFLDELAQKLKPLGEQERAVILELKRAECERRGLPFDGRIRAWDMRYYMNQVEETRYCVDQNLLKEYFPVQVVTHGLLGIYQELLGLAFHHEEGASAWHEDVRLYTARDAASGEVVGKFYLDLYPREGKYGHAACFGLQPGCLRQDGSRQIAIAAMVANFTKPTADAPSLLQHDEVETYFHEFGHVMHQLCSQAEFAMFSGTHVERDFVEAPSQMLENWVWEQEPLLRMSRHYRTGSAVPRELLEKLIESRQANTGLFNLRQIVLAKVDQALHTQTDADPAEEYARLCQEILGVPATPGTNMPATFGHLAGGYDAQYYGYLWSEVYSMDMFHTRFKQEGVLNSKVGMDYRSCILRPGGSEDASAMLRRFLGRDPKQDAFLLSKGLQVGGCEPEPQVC

Compound: Nc1ncnc2c1ncn2[C@@H]1O[C@H](COP(=O)(O)OP(=O)(O)NP(=O)(O)O)[C@@H](O)[C@H]1O [adenylyl imidodiphosphate]
Assay: NP40-soluble protein abundance relative to vehicle (solubility fold change) (ratio); higher = more soluble protein in presence of AMP-PNP
Method in brief: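 Eight concentrations, 0.1 to 10 mM, were tested on Jurkat crude lysate for 10 min at room temperature and then 3 min at 37 °C, in three independent experiments. The lysate was solubilised with 0.8% NP40 and benzonase, ultracentrifuged, and the supernatant TMT-labelled for LC-MS/MS. Each value is the fold change against the detergent-processed vehicle in its own replicate, from vsn-normalised intensities.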

Target	NP40-soluble protein abundance (concentration: 1mM)	NP40-soluble protein abundance (concentration: 2mM)	NP40-soluble protein abundance (concentration: 4mM)	NP40-soluble protein abundance (concentration: 6mM)	NP40-soluble protein abundance (concentration: 8mM)	NP40-soluble protein abundance (concentration: 10mM)
RAB27A (UniProt P51159)	0.977 ± 0.066	0.98 ± 0.027	0.98 ± 0.046	1.04 ± 0.078	1.02 ± 0.045	1.07 ± 0.034
UniProt P45983-3|P45983-2	1.06 ± 0.028	1.04 ± 0.044	1.06 ± 0.035	1 ± 0.049	1.03 ± 0.031	1 ± 0.029
SUCLG1 (UniProt P53597)	0.9736 ± 0.0091	0.984 ± 0.033	0.9687 ± 0.0086	1.03 ± 0.065	1.02 ± 0.067	1.03 ± 0.026
UniProt P54687 and related entries	0.984 ± 0.017	0.942 ± 0.055	0.94 ± 0.017	0.911 ± 0.013	0.918 ± 0.019	0.907 ± 0.046
UniProt P53677 and related entries	1.01 ± 0.016	1.01 ± 0.021	1 ± 0.015	0.995 ± 0.014	1.03 ± 0.032	0.998 ± 0.054
HCCS (UniProt P53701)	1.03 ± 0.015	1.01 ± 0.052	1.03 ± 0.022	1.02 ± 0.016	1.02 ± 0.029	0.986 ± 0.05
MLH1 (UniProt P40692)	1.1 ± 0.07	1.1 ± 0.17	1.18 ± 0.12	1.17 ± 0.1	1.2 ± 0.12	1.18 ± 0.12
RPL5 (UniProt P46777)	1 ± 0.04	0.987 ± 0.032	0.955 ± 0.057	0.953 ± 0.068	0.898 ± 0.064	0.973 ± 0.13
NEK4 (UniProt P51957)	0.998 ± 0.059	1.01 ± 0.1	1 ± 0.094	0.967 ± 0.09	0.974 ± 0.069	0.981 ± 0.09
UniProt P50053 and related entries	0.994 ± 0.024	1 ± 0.025	0.9864 ± 0.0097	0.968 ± 0.019	1 ± 0.032	0.995 ± 0.036
UniProt P41743	0.989 ± 0.016	0.94 ± 0.099	0.98 ± 0.034	0.94 ± 0.022	0.965 ± 0.038	0.935 ± 0.051
METAP1 (UniProt P53582)	1.05 ± 0.046	1.06 ± 0.081	1.16 ± 0.071	1.31 ± 0.046	1.37 ± 0.061	1.38 ± 0.074
UniProt P50995 and related entries	0.981 ± 0.042	1.03 ± 0.11	1.01 ± 0.04	1.05 ± 0.074	1.04 ± 0.09	1.01 ± 0.11
TRAPPC10 (UniProt P48553)	0.963 ± 0.015	0.935 ± 0.064	0.968 ± 0.043	0.952 ± 0.014	0.979 ± 0.045	0.961 ± 0.052
UniProt P52630 and related entries	0.988 ± 0.036	0.984 ± 0.031	1.04 ± 0.04	1.03 ± 0.026	1.043 ± 0.0069	1.03 ± 0.029
DAP3 (UniProt P51398)	1.01 ± 0.084	0.998 ± 0.092	1.01 ± 0.12	0.972 ± 0.11	0.982 ± 0.082	0.997 ± 0.12
RBM34 (UniProt P42696)	1.07 ± 0.069	1.12 ± 0.044	1.15 ± 0.082	1.23 ± 0.12	1.23 ± 0.12	1.36 ± 0.16
POLR2K (UniProt P53803)	1.03 ± 0.012	1.05 ± 0.069	1.08 ± 0.013	1.05 ± 0.027	1.12 ± 0.041	1.19 ± 0.031
THOP1 (UniProt P52888)	0.938 ± 0.036	0.884 ± 0.095	0.924 ± 0.021	0.944 ± 0.034	0.942 ± 0.041	0.921 ± 0.028

Complete entries as entered above. Order of values: NP40-soluble protein abundance (concentration: 1mM)	NP40-soluble protein abundance (concentration: 2mM)	NP40-soluble protein abundance (concentration: 4mM)	NP40-soluble protein abundance (concentration: 6mM)	NP40-soluble protein abundance (concentration: 8mM)	NP40-soluble protein abundance (concentration: 10mM)
UniProt P45983-3|P45983-2 in the list: 1.06 ± 0.028	1.04 ± 0.044	1.06 ± 0.035	1 ± 0.049	1.03 ± 0.031	1 ± 0.029
SUCLG1 (UniProt P53597) in the list: 0.9736 ± 0.0091	0.984 ± 0.033	0.9687 ± 0.0086	1.03 ± 0.065	1.02 ± 0.067	1.03 ± 0.026
